No constants are given. Whether binding was seen depends on the method and setting. In cells and extracts the contact can be indirect. Binding can be weak; no strength is given.
Key:
[1] = target: GFP-Cw9a(1-52) (S. pombe (natural isolate CBS5557)); assay: co-IP; in vivo co-immunoprecipitation in S. pombe (Supplementary Fig. 1h); GFP-Trap agarose beads by the general method
[2] = target: GST-tagged Cw9a(1-52) (S. pombe (natural isolate CBS5557)); assay: pull-down; GST pull-down: E. coli lysate with the GST fusion mixed with S. pombe lysate with the 3×FLAG-tagged ubiquitin ligase, 4 °C, glutathione-sepharose beads; 50 mM phosphate pH 7.4, 200 mM NaCl, 10% glycerol, 0.05% NP-40; anti-FLAG blot

The chains behind the UniProt entries cited, without tags or fusion partners.
UniProt Q92462: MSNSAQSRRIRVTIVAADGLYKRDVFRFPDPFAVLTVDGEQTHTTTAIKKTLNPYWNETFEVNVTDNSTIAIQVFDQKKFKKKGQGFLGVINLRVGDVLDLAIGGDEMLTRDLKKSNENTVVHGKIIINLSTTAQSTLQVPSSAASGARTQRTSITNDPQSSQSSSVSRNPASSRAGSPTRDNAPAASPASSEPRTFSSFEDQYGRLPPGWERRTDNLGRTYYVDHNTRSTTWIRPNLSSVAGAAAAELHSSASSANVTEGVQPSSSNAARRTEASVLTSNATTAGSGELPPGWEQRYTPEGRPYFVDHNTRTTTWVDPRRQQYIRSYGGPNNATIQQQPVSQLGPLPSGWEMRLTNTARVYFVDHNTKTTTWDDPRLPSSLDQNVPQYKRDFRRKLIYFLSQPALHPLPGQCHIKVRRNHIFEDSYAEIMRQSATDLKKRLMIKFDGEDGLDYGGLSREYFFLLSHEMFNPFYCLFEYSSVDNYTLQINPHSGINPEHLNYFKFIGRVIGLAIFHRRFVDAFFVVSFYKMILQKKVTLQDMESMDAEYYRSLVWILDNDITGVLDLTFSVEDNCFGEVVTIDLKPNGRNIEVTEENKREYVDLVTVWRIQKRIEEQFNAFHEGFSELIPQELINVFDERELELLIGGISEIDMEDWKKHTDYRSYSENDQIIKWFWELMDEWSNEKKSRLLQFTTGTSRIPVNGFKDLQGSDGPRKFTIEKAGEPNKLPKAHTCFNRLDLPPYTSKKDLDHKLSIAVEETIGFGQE

3×FLAG-tagged Pub1 (from UniProt Q92462 1-767) (enzyme)
binding [1]: binds | binding [2]: binds

— article PMC10721834
